Reference: US20240285586A1, “METHODS FOR TREATING BACTERIAL CELL POPULATIONS” (THE HONG KONG POLYTECHNIC UNIVERSITY, priority 2021, published 2024)

Test system: E. coli BW25113 wild type
Assay: Antibiotic accumulation assay (BOCILLIN, flow cytometry), wild type
Format: cell-based, Escherichia coli
Conditions: control for the substance's own fluorescence signal (FIG. 10A)
Experimental: Antibiotic accumulation assay. The overnight bacteria culture was diluted 100-fold in LB broth and cultivated for about 1 hr until the OD600 value reached 0.2 (exponential phase). Aliquots of this exponential phase culture were washed and re-suspended in saline, cultured at 37° C. under constant shaking (250 rpm) for 24 hrs, followed by addition of CCCP (1 μM). After 5 mins, BOCILLIN™ FL Penicillin (10 μg/mL) was added and incubated at 37° C. with shaking at 250 rpm for 1 hr. Upon washing twice with PBS, fluorescence signal was measured by flow cytometry CytoFLEX (Beckman). Microorganisms were identified by FSC (forward scatter) and SSC (side scatter) parameters. Fluorescence intensity was measured at 488-nm excitation, 525-nm emission.

SMILES	fluorescence level
Cc1cc(C)n2c1C=C1C=CC(CCC(=O)Nc3ccc(OCC(=O)N[C@@H]4C(=O)N5[C@@H]4SC(C)(C)[C@@H]5C(=O)[O-])cc3)=[N+]1[B-]2(F)F.[Na+] [BOCILLIN]	~45000 RFU
N#CC(C#N)=NNc1cccc(Cl)c1 [CCCP, carbonyl cyanide-m-chlorophenylhydrazone]	~250 RFU
